# Measurements from PubChem BioAssay AID504834 (National Center for Advancing Translational Sciences (NCATS), 2011).
# Screen size: about 320,000 compounds; about 22,000 (6.9%) were called active. The shares of active, inactive and inconclusive entries below differ from those in the screen. Calls come from the whole dose curve; as a rule, active = well fitted inhibition curve with a large enough effect; inconclusive = small, poorly fitted or top-dose-only effect, or another doubt; inactive = no such curve, though single readings can be large or run the other way. Potencies beside an inconclusive call are fits to weak or partial responses and may not hold up.
# Experiment: Primary qHTS for delayed death inhibitors of the malarial parasite plastid, 96 hour incubation
# Conditions: P. falciparum luciferase reporter growth; series mostly up to 28.7 µM
# In short: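 Luminescence readout: decreased luciferase signal marks inhibited growth of reporter-expressing P. falciparum in infected red cells (2% hematocrit, 0.05% parasitemia final), exposed to compound two generations (96 h, 37 C, 5% CO2).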
# Potency is the fitted concentration of half-maximal effect.
row,Compound,Potency
1,CCOCCCNC(=S)NCCc1ccccc1,"inconclusive: 10.4 µM [inhibitor, single point]"
2,CCOC(=O)Cc1csc(NC(=S)NC(=O)c2ccc(Cl)cc2)n1,"inconclusive: 1.85 µM [inhibitor, full curve]"
3,Nc1ccc(NS(=O)(=O)c2ccccc2)cc1,"inconclusive: 18.5 µM [inhibitor, single point]"
4,CCCOC1CCCN(C(=O)c2cc(COc3ccc(F)c(F)c3)on2)C1 (centres undefined),"inconclusive: 10.4 µM [inhibitor, partial curve, poor fit]"
5,COc1ccc(C2CC(=O)c3cnc(NC(=O)c4ccccc4)nc3C2)cc1OC (centres undefined),"inconclusive: 11.7 µM [inhibitor, single point]"
6,CN(C)c1ccc(C(c2nnnn2C(C)(C)C)N2CCc3ccccc3C2)cc1 (centres undefined),"inconclusive: 3.7 µM [inhibitor, single point]"
7,COc1cc2[nH]c(C(=O)N3CCc4ccccc4C3)cc2c(OC)c1OC,"inconclusive: 20.8 µM [inhibitor, partial curve, poor fit]"
8,O=C(NC1CCCN(c2ccc(C(F)(F)F)cn2)C1)c1cc(Cl)ccc1F (centres undefined),"inconclusive: 18.5 µM [inhibitor, single point]"
9,Cc1cccc(N2CCN(S(=O)(=O)c3ccc(S(=O)(=O)N4CCCC4)cc3)CC2)c1C,inactive
10,CCCc1nnc(SCC(=O)NC2CC2)n1C,inactive
11,COc1ccccc1NS(=O)(=O)c1c(C)[nH]c(C)c1C(=O)N1CCCC1,inactive
12,CC(=O)N1CCC2(CC1)CC(=O)c1cc(OCC(=O)N3CCCC3)ccc1O2,"inconclusive: 14.7 µM [inhibitor, partial curve, poor fit]"
13,O=c1c2cc(N3CCOCC3)ccc2[nH]c(=S)n1Cc1ccc(Cl)cc1,inactive
14,Cc1nc(/C=C\C(=O)O)c2cc(C)oc2n1,inactive
15,Cc1ccc(N(C(=O)c2ccccn2)C(C(=O)NC2CCCCC2)c2ccncc2)cc1 (centres undefined),"inconclusive: 8.28 µM [inhibitor, partial curve, poor fit]"
16,CC(=O)SCC(C)C(=O)NCc1ccccc1 (centres undefined),inactive
17,OCCN(Cc1ccccc1)CC1CC=CCC1 (centres undefined),inactive
18,COc1ccccc1NC(=O)CSc1nnnn1-c1ccc(F)cc1,"inconclusive: 13.1 µM [inhibitor, single point]"
19,CCOc1cccc(-c2nc3cc(C)ccc3o2)c1,"inconclusive: 9.28 µM [inhibitor, single point]"
20,COc1ccc(NC(=O)c2sc3nc(C)nc(N4CCN(c5ccccn5)CC4)c3c2C)c(OC)c1,"inconclusive: 18.5 µM [inhibitor, single point]"
21,FC(F)(F)c1ccccc1NC(=S)Nc1ccccc1,active: 1.47 µM
22,O=C(O)CCCN1C(=O)/C(=C/c2ccc(-c3nc4ccccc4s3)o2)SC1=S,inactive

row,Compound,Potency
1,CCOC(=O)Nc1ccc2c(CN3CCN(S(=O)(=O)c4ccccc4F)CC3)cc(=O)oc2c1,active: 10.4 µM
2,O=S(=O)(NCc1nnc2ccccn12)c1ccc(F)cc1,inactive
3,Cc1cc(C)cc(C(=O)Oc2cc(C)[nH]c(=O)c2[N+](=O)[O-])c1,inactive
4,CCN(CC)S(=O)(=O)c1ccc(C)c(NC(=S)NC2CCCCC2)c1,"inconclusive: 9.28 µM [inhibitor, single point]"
5,COCc1ccc([C@@H]2C[C@H]3CN(Cc4ccccc4C)C(=O)[C@]34CCCN24)o1,"inconclusive: 10.4 µM [inhibitor, single point]"
6,CCOC(=O)C(NC(=O)c1ccc(OC)cc1)(N1CCCC1=O)C(F)(F)F (centres undefined),inactive
7,CN1CCC(N(C)C(=S)NC(=O)c2cc(-c3cccc(Br)c3)nc3ccccc23)CC1,"inconclusive: 1.47 µM [inhibitor, full curve, poor fit]"
8,Cc1ccc(C(=O)NCCc2nnc3ccc(NCc4ccc5c(c4)OCO5)nn23)cc1,"inconclusive: 5.22 µM [inhibitor, partial curve]"
9,CCCCCOc1ccc(C(=O)OCC(=O)Nc2cc(C)c(C)cc2[N+](=O)[O-])cc1,"inconclusive: 0.0329 µM [inhibitor, full curve, poor fit]"
10,COc1cc(Cl)cc(C(c2c(C(=O)O)[nH]c3ccccc23)c2c(C(=O)O)[nH]c3ccccc23)c1O,"inconclusive: 18.5 µM [inhibitor, single point]"
11,Cn1ncc(Cl)c1C(=O)N/N=C/c1cccc(OC2CSC2)c1,inactive
12,CN(C(=O)c1ccncc1)C1CCCN(Cc2ccccc2F)C1 (centres undefined),"inconclusive: 10.4 µM [inhibitor, single point]"
13,CCOc1ccccc1OCCCC(=O)N1CCN(S(=O)(=O)c2ccc(C)cc2)CC1,"inconclusive: 5.22 µM [inhibitor, partial curve, poor fit]"
14,Cc1ccccc1OCC(=O)N1N=C(C(F)(F)F)CC1(O)C(C)(C)C (centres undefined),"inconclusive: 3.7 µM [inhibitor, partial curve, poor fit]"
15,C=C1CCN([C@@H](C)C(=O)NCc2ccc(OC)cc2)S(=O)(=O)c2ccccc21,"inconclusive: 9.28 µM [inhibitor, partial curve, poor fit]"
16,CN(C)c1ccc(NS(=O)(=O)c2cccc(Cl)c2)cc1,"inconclusive: 18.5 µM [inhibitor, single point]"
17,COc1ccccc1Oc1ccc(NC(=O)c2ccccc2C)cc1,"inconclusive: 0.465 µM [inhibitor, full curve]"
18,CN(C)S(=O)(=O)c1cccc(NC(=S)Nc2ccc(Cl)cc2Cl)c1,inactive
19,O=S(=O)(c1ccc(Cl)cc1)n1ccc2cccnc21,"inconclusive: 11.7 µM [inhibitor, partial curve, poor fit]"
20,COC(=O)c1sc(C(C)(C)C)cc1CS(=O)(=O)c1ccc(Cl)cc1,"inconclusive: 3.29 µM [inhibitor, partial curve, poor fit]"
21,CCOc1ccc(C2C(C#N)=C(N)Oc3cc(O)ccc32)cc1OCC (centres undefined),"inconclusive: 18.5 µM [inhibitor, single point]"
22,O=C(NCC(=O)N1CCOCC1)c1ccccc1,inactive

# Of the compounds above, these have four or more nitrogen atoms.
row,Compound,Potency
6,CN(C)c1ccc(C(c2nnnn2C(C)(C)C)N2CCc3ccccc3C2)cc1 (centres undefined),"inconclusive: 3.7 µM [inhibitor, single point]"
10,CCCc1nnc(SCC(=O)NC2CC2)n1C,inactive
15,Cc1ccc(N(C(=O)c2ccccn2)C(C(=O)NC2CCCCC2)c2ccncc2)cc1 (centres undefined),"inconclusive: 8.28 µM [inhibitor, partial curve, poor fit]"
18,COc1ccccc1NC(=O)CSc1nnnn1-c1ccc(F)cc1,"inconclusive: 13.1 µM [inhibitor, single point]"
20,COc1ccc(NC(=O)c2sc3nc(C)nc(N4CCN(c5ccccn5)CC4)c3c2C)c(OC)c1,"inconclusive: 18.5 µM [inhibitor, single point]"
2,O=S(=O)(NCc1nnc2ccccn12)c1ccc(F)cc1,inactive
7,CN1CCC(N(C)C(=S)NC(=O)c2cc(-c3cccc(Br)c3)nc3ccccc23)CC1,"inconclusive: 1.47 µM [inhibitor, full curve, poor fit]"
8,Cc1ccc(C(=O)NCCc2nnc3ccc(NCc4ccc5c(c4)OCO5)nn23)cc1,"inconclusive: 5.22 µM [inhibitor, partial curve]"
11,Cn1ncc(Cl)c1C(=O)N/N=C/c1cccc(OC2CSC2)c1,inactive
